PubChem BioAssay AID1224830, NIAID, 2016

Purpose: 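Host factors that control LPS-induced TNF expression in human macrophages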 (primary screen)
System: human THP-1 monocytic leukaemia cells, TNF dual-luciferase reporter clone, PMA-differentiated to macrophage-like cells
Reagents: siRNA pool against human genes, 50 nM
Time to read-out: LPS for 4 h, given about 3 days after siRNA transfection
Conditions: bacterial LPS (TLR4 ligand), 10 ng/ml
Measurement: 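Ratio of firefly to renilla light, scaled to the plate median and expressed as a robust z-score per replicate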
Reading the numbers: TNF reporter robust z-score: higher = stronger TNF reporter response to LPS
Rule for the call: 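Each well counts as active if its z-score is over 2.8 or under -1.5; controls are left without a call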
Shown is an unselected part of about 18,000 reagents tested. About 2,900 of all reagents (16%) count as active. 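Calls are made per well; low scores hint the gene aids the LPS response, high scores that it dampens it.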 Repeated entries: four replicate wells of each siRNA pool.

Target gene	TNF reporter robust z-score	Outcome
FA2H	-0.53	inactive
FA2H	-0.71	inactive
FA2H	-0.93	inactive
FA2H	-0.23	inactive
LDLRAD4	0.18	inactive
LDLRAD4	0.99	inactive
LDLRAD4	1	inactive
LDLRAD4	1.15	inactive
SLC38A5	0.11	inactive
SLC38A5	-0.23	inactive
SLC38A5	-0.36	inactive
SLC38A5	0.22	inactive
NSMCE4A	-0.75	inactive
NSMCE4A	0.17	inactive
NSMCE4A	-0.14	inactive
NSMCE4A	-0.09	inactive
PSMA7	-1.85	active
PSMA7	-1.56	active
PSMA7	-1.01	inactive
PSMA7	0.51	inactive
CD81	1.83	inactive
CD81	3.7	active
CD81	1.5	inactive
CD81	3.91	active
CBLN4	-1.38	inactive
CBLN4	-1.37	inactive
CBLN4	-1.04	inactive
CHD7	-0.95	inactive
CHD7	0.06	inactive
CHD7	0.23	inactive
CHD7	-0.28	inactive
FCHO2	-1.08	inactive
FCHO2	0.89	inactive
FCHO2	0.85	inactive
FCHO2	-0.21	inactive
ARHGAP6	-0.14	inactive
ARHGAP6	1.78	inactive
ARHGAP6	0.27	inactive
ARHGAP6	2.25	inactive
AFG2A	0.12	inactive
AFG2A	-0.36	inactive
AFG2A	-1.07	inactive
AFG2A	-0.73	inactive
HOMEZ	0.49	inactive
HOMEZ	2.32	inactive
HOMEZ	1.2	inactive
HOMEZ	1.35	inactive

Part of the list above, reformatted:
Target gene | TNF reporter robust z-score | Outcome
PSMA7 | -1.85 | active
PSMA7 | -1.56 | active
PSMA7 | -1.01 | inactive
PSMA7 | 0.51 | inactive
CD81 | 1.83 | inactive
CD81 | 3.7 | active
CD81 | 1.5 | inactive
CD81 | 3.91 | active
CBLN4 | -1.38 | inactive
CBLN4 | -1.37 | inactive
CBLN4 | -1.04 | inactive
CHD7 | -0.95 | inactive
CHD7 | 0.06 | inactive

Additional reagents follow:
Target gene	TNF reporter robust z-score	Outcome
NUDT1	-1.4	inactive
NUDT1	0.31	inactive
NUDT1	0.33	inactive
NUDT1	0.99	inactive
SLC18A3	-0.17	inactive
SLC18A3	0.14	inactive
SLC18A3	0	inactive
SLC18A3	0.99	inactive
TP53TG5	0	inactive
TP53TG5	-0.28	inactive
TP53TG5	-1.02	inactive
TP53TG5	0.06	inactive
FLG	-0.94	inactive
FLG	0	inactive
FLG	-1.14	inactive
FLG	-0.41	inactive
HLTF	-0.47	inactive
HLTF	0.46	inactive
HLTF	-0.71	inactive
HLTF	2.36	inactive
GADD45A	2.13	inactive
GADD45A	1.86	inactive
GADD45A	1.38	inactive
GADD45A	2.28	inactive
SPANXA1	0.18	inactive
SPANXA1	1.43	inactive
SPANXA1	0.13	inactive
SPANXA1	0.66	inactive
AOPEP	0.27	inactive
AOPEP	2.31	inactive
AOPEP	0.95	inactive
AOPEP	1.34	inactive
EXOSC2	-0.72	inactive
EXOSC2	-0.26	inactive
EXOSC2	-0.46	inactive
EXOSC2	0.82	inactive
GEMIN2	-0.63	inactive
GEMIN2	-0.47	inactive
GEMIN2	-0.36	inactive
GEMIN2	-0.11	inactive
ME3	-1.22	inactive
ME3	-1.09	inactive
ME3	-0.98	inactive
ME3	-0.94	inactive
MMD2	0.53	inactive
MMD2	1.23	inactive
MMD2	0.91	inactive
MMD2	0.07	inactive
TAAR8	0.41	inactive
TAAR8	0.51	inactive
TAAR8	0.26	inactive
TAAR8	0.73	inactive
PPP1R8	-1.3	inactive
PPP1R8	-1	inactive
PPP1R8	-1.16	inactive
PPP1R8	-0.09	inactive
ZNF225	-0.46	inactive
ZNF225	-1.08	inactive
ZNF225	-1.38	inactive
ZNF225	-1.15	inactive
STXBP1	-0.6	inactive
STXBP1	2.52	inactive
STXBP1	0.64	inactive
STXBP1	1.96	inactive
